Assay results from patent publication US8378114B2, “N-2-(hetero)arylethylcarboxamide derivative, and pest-controlling agent comprising the same” (Nihon Nohyaku Co., Ltd., priority 2006, dated 2013).
Some entries share one result that the patent states for a list of compounds. For some assays here: At least one structure is not confirmed: it was looked up by name or label, or the drawing left a doubt.

Key:
Type in all cases: in vivo
[1] = test system: causal fungus of gray mold of cucumber plant (Botrytis cinerea); test: Test on the controlling efficacy against gray mold of cucumber plant; settings: foliar application, 7 days after inoculation
[2] = test system: causal fungus of barley powdery mildew (Blumeria graminis f. sp. hordei); test: Test on the controlling efficacy against powdery mildew of barley plant; settings: barley (Kantoh No. 6), foliar application, active ingredient 50 ppm, emulsion amount 50 mL, 7 days after inoculation
[3] = test system: causal fungus of apple tree scab (Venturia inaequalis); test: Test on the controlling efficacy against apple tree scab; settings: apple seedling (Ohrin), foliar application, active ingredient 50 ppm, emulsion amount 50 mL, 14 days after inoculation
Excerpt: A seedling of an apple tree (the variety: Ohrin) grown in a pot was subjected to foliar application with a diluted emulsion of the emulsifiable concentrate of the compound of the present invention prepared in accordance with Formulation Example 1, which diluted emulsion was produced by diluting the concentrate with water to the specifically determined volume. On the following day after the application, the seedling was inoculated by spraying with a spore suspension of the causal fungus of apple tree scab (Venturia inaequalis) as obtained by culture on the PSA medium and maintained at 20° C. under humid conditions. Fourteen days after the inoculation, the protective value (%) was determined in accordance with the equation (1), and the controlling efficacy was assessed according the below-described criteria of judgment. [formula]

[4] = cucumber (Suyou), active ingredient 50 ppm, emulsion amount 50 ml

Row | Structure (SMILES) | controlling efficacy, criteria of judgment (protective value) [1, 4] | controlling efficacy, criteria of judgment [2] | controlling efficacy, criteria of judgment (protective value) [3] | controlling efficacy, criteria of judgment (protective value) ([1]; cucumber, 4-fold concentration 200 ppm)
1 | CC(C)C(CNC(=O)c1cccnc1Cl)c1ccc(Cl)cc1Cl (racemic) [2-20] | 10 (100% in protective value) | – | – | –
2 | CC(Cc1ccc(Cl)cc1Cl)NC(=O)c1cccnc1Cl (racemic) [2-25] | 10 (100% in protective value) | 10 (100% in protective value) | – | –
3 | O=C(NCCc1ccc(Cl)cc1Cl)c1cccnc1C(F)(F)F [2-1] | 10 (100% in protective value) | – | 10 (100% in protective value) | –
4 | O=C(NCCc1ccc(Cl)cc1Cl)c1nccnc1C(F)(F)F [3-5] | 10 (100% in protective value) | 10 (100% in protective value) | 10 (100% in protective value) | –
5 | O=C(NCCc1ccc(F)cc1Cl)c1nccnc1C(F)(F)F [3-6] | 10 (100% in protective value) | – | 10 (100% in protective value) | –
6 | Cc1cc(Cl)ccc1CCNC(=O)c1nccnc1C(F)(F)F [3-7] | 10 (100% in protective value) | 10 (100% in protective value) | 10 (100% in protective value) | –
7 | Cc1ccc(CCNC(=O)c2nccnc2C(F)(F)F)c(C)c1 [3-8] | 10 (100% in protective value) | – | 10 (100% in protective value) | –
8 | O=C(NCCc1ccc(C(F)(F)F)cc1C(F)(F)F)c1nccnc1C(F)(F)F [3-9] | 10 (100% in protective value) | 10 (100% in protective value) | – | –
9 | O=C(NCCc1ccc(C(F)(F)F)cc1Cl)c1nccnc1C(F)(F)F [3-10] | 10 (100% in protective value) | 10 (100% in protective value) | 10 (100% in protective value) | –
10 | O=C(NCCc1ccc(C(F)(F)F)cc1F)c1nccnc1C(F)(F)F [3-11] | 10 (100% in protective value) | 10 (100% in protective value) | 10 (100% in protective value) | –
11 | O=C(NCCc1cc(C(F)(F)F)ccc1Cl)c1nccnc1C(F)(F)F [3-25] | 10 (100% in protective value) | 10 (100% in protective value) | – | –
12 | O=C(NCCc1ccc(Cl)c(Cl)c1)c1nccnc1C(F)(F)F [3-30] | 10 (100% in protective value) | – | 10 (100% in protective value) | –
13 | O=C(NCC1(c2ccc(Cl)cc2Cl)CC1)c1nccnc1C(F)(F)F [3-42] | 10 (100% in protective value) | 10 (100% in protective value) | – | –
14 | CCC(Cc1ccc(Cl)cc1Cl)NC(=O)c1nccnc1C(F)(F)F (centres unmarked) [3-89] | 10 (100% in protective value) | – | – | –
15 | O=C(NCCc1cc(F)c(F)cc1Cl)c1nccnc1C(F)(F)F [3-93] | 10 (100% in protective value) | 10 (100% in protective value) | – | –
16 | CC(Cc1ccc(Oc2ccc(F)cc2)cc1Cl)NC(=O)c1nccnc1C(F)(F)F (centres unmarked) [3-104] | 10 (100% in protective value) | 10 (100% in protective value) | – | –
17 | CC(Cc1ccc(Oc2cccc(F)c2)cc1Cl)NC(=O)c1nccnc1C(F)(F)F (centres unmarked) [3-105] | 10 (100% in protective value) | – | – | –
18 | COc1cccc(Oc2ccc(CC(C)NC(=O)c3nccnc3C(F)(F)F)c(Cl)c2)c1 (centres unmarked) [3-106] | 10 (100% in protective value) | – | 10 (100% in protective value) | –
19 | O=C(NCCc1ccc(F)cc1Cl)c1nccnc1Cl [3′-6] | 10 (100% in protective value) | – | 10 (100% in protective value) | –
20 | O=C(NCCc1ccc(Cl)c(Cl)c1)c1nccnc1Cl [3′-30] | 10 (100% in protective value) | – | 10 (100% in protective value) | –
21 | CCC(CNC(=O)c1nccnc1Cl)c1ccc(Cl)cc1Cl (centres unmarked) [3′-42] | 10 (100% in protective value) | 10 (100% in protective value) | – | –

Row | Structure (SMILES) | controlling efficacy, criteria of judgment (protective value) [1, 4] | controlling efficacy, criteria of judgment [2] | controlling efficacy, criteria of judgment (protective value) [3] | controlling efficacy, criteria of judgment (protective value) ([1]; cucumber, 4-fold concentration 200 ppm)
22 | O=C(NCC1(c2ccc(Cl)cc2Cl)CC1)c1nccnc1Cl [3′-43] | 10 (100% in protective value) | 10 (100% in protective value) | – | –
23 | CC(Cc1ccc(Cl)cc1Cl)NC(=O)c1nccnc1Cl (centres unmarked) [3′-44] | 10 (100% in protective value) | – | 10 (100% in protective value) | –
24 | CC(Cc1ccc(F)cc1F)NC(=O)c1nccnc1Cl (centres unmarked) [3′-61] | – | 10 (100% in protective value) | 10 (100% in protective value) | –
25 | Cc1nccnc1C(=O)NCCc1ccc(Cl)cc1Cl [3″-5] | 10 (100% in protective value) | – | 10 (100% in protective value) | –
26 | Cc1ccc(CCNC(=O)c2nccnc2C)c(C)c1 [3″-8] | 10 (100% in protective value) | – | 10 (100% in protective value) | –
27 | Cc1nccnc1C(=O)NCC1(c2ccc(Cl)cc2Cl)CC1 [3″-42] | 10 (100% in protective value) | 10 (100% in protective value) | – | –
28 | CC1=C(C(=O)NCCc2ccc(Cl)cc2Cl)SCCO1 [4-2] | 10 (100% in protective value) | – | – | –
29 | Cc1nn(C)cc1C(=O)NCCc1ccc(Cl)cc1Cl [5-4] | – | 10 (100% in protective value) | 10 (100% in protective value) | –
30 | Cn1cc(C(=O)NCCc2ccc(Cl)c(Cl)c2)c(C(F)(F)F)n1 [5-7] | – | 10 (100% in protective value) | 10 (100% in protective value) | –
31 | Cn1cc(C(=O)NCCc2ccc(Cl)cc2Cl)c(I)n1 [5-15] | – | 10 (100% in protective value) | 10 (100% in protective value) | –
32 | Cc1nn(C)cc1C(=O)NC(C)Cc1ccc(Cl)cc1Cl (centres unmarked) [5-20] | – | 10 (100% in protective value) | 10 (100% in protective value) | –
33 | Cc1ccc(CCNC(=O)c2sc(C)nc2C)c(C)c1 [6-3] | 10 (100% in protective value) | – | 10 (100% in protective value) | –
34 | Cc1nc(C)c(C(=O)NCC2(c3ccc(Cl)cc3Cl)CC2)s1 [6-19] | 10 (100% in protective value) | – | – | –
35 | Cc1nc(C(F)(F)F)c(C(=O)NC(C)Cc2ccc(Cl)cc2Cl)s1 (centres unmarked) [6-26] | – | 10 (100% in protective value) | 10 (100% in protective value) | –
36 | Cc1occc1C(=O)NCCc1ccc(Cl)cc1Cl [7-1] | 10 (100% in protective value) | – | – | –
37 | O=C(NCCc1ccc(Cl)cc1Cl)c1sccc1C(F)(F)F [9-1] | – | 10 (100% in protective value) | 10 (100% in protective value) | –
38 | O=C(NCCc1ccc(Cl)cc1Cl)c1sccc1I [9-2] | 10 (100% in protective value) | – | 10 (100% in protective value) | –
39 | O=C(NCCc1cccc(C(F)(F)F)c1)c1c(Cl)cccc1Cl [comparison compound A, 2,6-dichloro-N-[2-{3-(trifluoromethyl)phenyl}ethyl]benzamide, reference compound] | 0 (Less than 9% in protective value) | 0 (Less than 9% in protective value) | – | 0 (Less than 9% in protective value)
40 | O=C(NCCc1ncc(C(F)(F)F)cc1Cl)c1ccccc1C(F)(F)F [comparison compound B, N-{2-[3-chloro-5-(trifluoromethyl)pyridin-2-yl]ethyl}-2-trifluoromethylbenzamide, reference compound] | 0 (Less than 9% in protective value) | 0 (Less than 9% in protective value) | – | –
41 | Cc1ccsc1C(=O)NC(C)(C)C(=O)c1ccc(Cl)c(Cl)c1 [comparison compound D, N-[3′,4′-dichloro-(1,1-dimethyl)phenacyl]-3-methyl-2-thiophenecarboxamide, reference compound] | 0 (Less than 9% in protective value) | 0 (Less than 9% in protective value) | – | –
42 | O=C(NCCc1ccc(Cl)c(Cl)c1)c1ccccc1C(F)(F)F [compound No. 1-20] | 10 (100% in protective value) | – | 10 (100% in protective value) | –
